Measured values as given in paper PMC8319299.

Tested on: PRC2 core (EZH2-EED-SUZ12-RBBP4) (Homo sapiens)
Assay: fluorescence anisotropy
Settings: 50 mM Tris-HCl pH 7.5 (25 C), 100 mM KCl, 2 mM 2-mercaptoethanol, 0.1 mg/mL BSA, 0.05% NP-40; FA at 30 C; recombinant protein; protein details: His6-MBP (PreScission-cleavable); label: 3'-fluorescein; folded or branched DNA

GGCGCCCTGCCCCGCCTCGCTCTGGCAGAGTGGGGAGCCAGCCGGCGCTAGCCGGCTGGCTCCCCACTCTGCCAGAGCGAGGCGGGGCAGGGCGCC [CpG46]
Kd: > 4 µM
